Assay results as given in PubChem BioAssay AID493014 (National Center for Advancing Translational Sciences (NCATS), 2011).
The list shows a part of the results. Further columns of the screen follow, without active or inactive calls. The list favours compounds with an active or inconclusive main result. Potencies come from curve fits of mixed quality, noted in brackets.

Experiment: qHTS Assay to Find Inhibitors of Chronic Active B-Cell Receptor Signaling
Conditions: ABC-DLBCL IkBa-CBG/CBR reporter, luminescence ratio (green luciferase fused to IkBa over red control in TMD8 lymphoma cells), 4 h
Summary of the method: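 Cell line TMD8 (human ABC DLBCL), stably expressing tet-inducible CBG68-IkBa fusion and CBR; IMDM/0.5% FBS; cpd up to 46 uM; dox induction, 4 h, 37C/5% CO2; dual luminescence; green/red ratio; MG132 control.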

[1] = measured here: CBR red luminescence, cell number
[2] = measured here: IkBa-CBG green luminescence

| SMILES | AC50 [1] | AC50 [2] |
| --- | --- | --- |
| O=C(CNC(=O)c1cccs1)N/N=C/c1c[nH]c2ccccc12 | 5.62 µM [falling, partial curve] | – |
| CC(NC(=O)/C(C#N)=C/c1ccc(N2CCOCC2)cc1)c1ccccc1 (stereo not given) | 6.31 µM [falling, full curve, poor fit] | – |
| CCn1c(=O)c(C(=O)CN2CC(C)OC(C)C2)c(N)n(Cc2ccccc2)c1=O (stereo not given) | 3.55 µM [rising, single point] | – |
| Cc1ccc2nc(Nc3ccc(F)cc3)c3nncn3c2c1 | 1.41 µM [rising, full curve] | – |
| O=C(COc1ccc(Br)cc1Cl)c1ccc[nH]1 | 10 µM [falling, single point] | – |
| CS(=O)(=O)/C(C#N)=C\c1cnc(S(=O)(=O)c2ccccc2)s1 | 35.5 µM [falling, single point] | – |
| C=CCNC(=S)NNC(=O)COc1ccc2cc(Br)ccc2c1 | 25.1 µM [falling, single point] | 10 µM [falling, partial curve, poor fit] |
| O=C(NC1CC(=O)N(c2ccc(F)cc2)C1)c1cc2ccccc2o1 (stereo not given) | 14.1 µM [rising, partial curve, poor fit] | – |
| O=C(Nc1cccc(C(F)(F)F)c1)Oc1ccc(Cl)c2cccnc12 | 4.47 µM [rising, partial curve, poor fit] | 5.62 µM [falling, single point] |
| O=C(Nc1ccccc1F)c1ccncc1 | 4.11 µM [falling, partial curve, poor fit] | – |
| CCOC(=O)C1CCN(C(=O)c2sc3nc(-c4ccccc4)cn3c2C)CC1 | 32.6 µM [falling, single point] | – |
| Cc1ccn2cc(-c3ccc(Br)cc3)nc2c1 | 12.6 µM [falling, partial curve] | – |
| Cc1nc2c(C(=O)NCc3ccccc3Cl)cnn2c(C)c1Cc1c(F)cccc1Cl | 2.51 µM [rising, partial curve, poor fit] | – |
| CCc1ccc(C(=O)COC(=O)c2ccco2)cc1 | 4.47 µM [rising, full curve] | – |
| O=C1c2ccccc2C(=O)N1OCCOCCOCCBr | 7.31 µM [falling, single point] | – |
| CCCCOc1ccc(C(=O)NCCc2cccs2)cc1 | 2.24 µM [rising, partial curve, poor fit] | – |
| COc1ccc(CNCC(O)(c2ccccc2)c2ccc(F)cc2)cc1 (stereo not given) | 17.8 µM [falling, single point] | – |
| Clc1ccc(-c2nnc(-c3ccc(Br)cc3)c(N3CCSCC3)n2)cc1 | 7.08 µM [falling, partial curve] | – |
| Cc1cccc(NC(=O)CNC(=O)Cn2ncc(Cl)c(Cl)c2=O)c1C | 6.51 µM [falling, full curve, poor fit] | – |
| CCCCCn1c(NC2CCCCC2)nc2c1c(=O)[nH]c(=O)n2C | 35.5 µM [rising, single point] | – |
| N/C(=N\OC(=O)C(c1ccccc1)c1ccccc1)c1ccccn1 | 20.6 µM [rising, partial curve] | – |

Full records, looked up by structure:
CS(=O)(=O)/C(C#N)=C\c1cnc(S(=O)(=O)c2ccccc2)s1 as listed: AC50 [1]: 35.5 µM [falling, single point]
Clc1ccc(-c2nnc(-c3ccc(Br)cc3)c(N3CCSCC3)n2)cc1 as listed: AC50 [1]: 7.08 µM [falling, partial curve]

Following part

| SMILES | AC50 [1] | AC50 [2] |
| --- | --- | --- |
| O=c1[nH]c(-c2ccccn2)nc(C(F)(F)F)c1Br | 22.4 µM [rising, single point] | 31.6 µM [falling, single point] |
| O=C(COC(=O)Cc1ccccc1F)Nc1cccc(S(=O)(=O)NC2=NCCCCC2)c1 | 7.08 µM [rising, partial curve, poor fit] | – |
| O=C1Nc2c(ccc(Cl)c2Cl)C(=O)C1(F)c1ccccc1 (stereo not given) | 35.5 µM [falling, single point] | – |
| O=C(Nc1cccc(-c2csc(Nc3ccccc3)n2)c1)c1cc([N+](=O)[O-])cc(C(F)(F)F)c1 | 3.98 µM [rising, full curve] | – |
| CCSc1nnc(NC(=O)c2ccc(C)cc2)s1 | 9.2 µM [falling, partial curve, poor fit] | – |
| CCC(CC)C(=O)Nc1ccc(C)c(O)c1 | 7.94 µM [rising, partial curve, poor fit] | – |
| CC(=O)Oc1ccccc1C(=O)NC(C)CCc1ccccc1 (stereo not given) | 35.5 µM [falling, single point] | – |
| COc1cc(-c2noc(C)c2-c2ccc(N(C)C)nc2)cc(OC)c1OC | 5.01 µM [rising, partial curve] | 2.24 µM [falling, partial curve] |
| COc1ccccc1N(CC(=O)N(CC(C)C)CC(C)C)S(=O)(=O)c1cccs1 | 17.8 µM [falling, single point] | 15.8 µM [rising, partial curve, poor fit] |
| Cc1ccsc1C(=O)OCC(=O)NCc1ccc2c(c1)OCO2 | 0.1 µM [rising, full curve, poor fit] | – |
| Cc1nc(SCC(=O)N2CCN(c3ccccc3)CC2)c2oc3ccccc3c2n1 | 20 µM [falling, partial curve] | – |
| COc1cccc2c1OCC(C(=O)OCc1cccnc1)=C2 | 35.5 µM [falling, single point] | – |
| COc1cc(/C=N/Nc2ccccc2[N+](=O)[O-])cc(OC)c1O | 0.891 µM [rising, full curve, poor fit] | – |
| O=C(COc1ncnc2sccc12)N1CCN(S(=O)(=O)c2ccc(Cl)cc2)CC1 | 6.51 µM [rising, partial curve, poor fit] | – |
| CSc1cccc(NC(=O)C(C)Sc2ccc(C)cc2)c1 (stereo not given) | 0.146 µM [falling, full curve, poor fit] | – |
| C=CCc1c(C)nc2c(OC)cccc2c1Cl | 1.26 µM [rising, partial curve, poor fit] | – |
| Cc1ccc(C(NC(=O)N2CCCCC2)=C(Cl)Cl)cc1F | 7.31 µM [falling, partial curve, poor fit] | – |
| O=C(O)C1Cc2c([nH]c3ccccc23)C(c2ccc3c(c2)OCO3)N1 (stereo not given) | 10 µM [falling, partial curve, poor fit] | – |
| Cn1cc(/C=N/n2cnc3sc4c(c3c2=O)CCCC4)c2ccccc21 | 0.112 µM [falling, full curve, poor fit] | – |
| CCCc1oc2ccc(NS(=O)(=O)c3ccc(OC)cc3)cc2c1C(=O)OCC | 3.55 µM [rising, partial curve, poor fit] | 3.98 µM [falling, partial curve, poor fit] |
| Cc1ccc(-c2[nH]c3ccccc3c2C(C[N+](=O)[O-])c2ccco2)cc1 (stereo not given) | 13 µM [falling, partial curve, poor fit] | – |

By substructure, the compounds so far with a cyano group.

| SMILES | AC50 [1] | AC50 [2] |
| --- | --- | --- |
| CC(NC(=O)/C(C#N)=C/c1ccc(N2CCOCC2)cc1)c1ccccc1 (stereo not given) | 6.31 µM [falling, full curve, poor fit] | – |
| CS(=O)(=O)/C(C#N)=C\c1cnc(S(=O)(=O)c2ccccc2)s1 | 35.5 µM [falling, single point] | – |

Next results follow:

| SMILES | AC50 [1] | AC50 [2] |
| --- | --- | --- |
| COC(=O)c1sc(NC(=O)COc2ccccc2)nc1C | 1.16 µM [falling, full curve] | – |
| Clc1ccc(-c2n[nH]c3c2CCCC3)cc1 | 0.794 µM [rising, full curve, poor fit] | – |
| Cc1ccc(OCCOCCn2ccnc2)c(Br)c1 | 28.2 µM [rising, single point] | – |
| Cc1cc(C)nc(/N=C(\N)Nc2ccccc2-c2ccccc2)n1 | 5.62 µM [falling, full curve, poor fit] | – |
| O=C(Nc1nccs1)c1ccc(N2C(=O)C3CCCCC3C2=O)cc1 (stereo not given) | 8.91 µM [falling, partial curve] | 0.282 µM [rising, full curve] |
| Cc1ncn2cc(-c3ccc(Cl)cc3Cl)[nH]c(=O)c12 | 3.16 µM [falling, full curve, poor fit] | – |
| CC(C)c1ccc(C(=O)OC2CCOC2=O)cc1 (stereo not given) | 14.1 µM [falling, partial curve, poor fit] | – |
| Cc1c(C)n(C)c2ccc(C(=O)NCCN3CCOCC3)cc12 | 14.1 µM [rising, single point] | – |
| CCc1ccc(/C=C2\Oc3c(ccc(O)c3CN3CCN(CCO)CC3)C2=O)cc1 | 3.55 µM [rising, partial curve, poor fit] | – |
| COc1cccc(/C=C/C(=O)Nc2ccc(OC)nc2)c1 | 9.2 µM [falling, partial curve] | – |
| CC1CCc2c(nc3ncnn3c2NCCN(C)C)C1 (stereo not given) | 11.2 µM [rising, partial curve, poor fit] | – |
| Cc1ccc(/C=N/NC(=O)c2ccc3ccccc3c2)s1 | – | 12.6 µM [falling, single point] |
| O=[N+]([O-])c1ccc(-c2cc(-c3ccncc3)nc3ccc4ccccc4c23)cc1 | 1.41 µM [rising, partial curve] | – |
| O=C(CCCC(=O)N1CCN(c2ccccc2F)CC1)c1ccccc1 | 10 µM [rising, single point] | – |
| COc1cccc(OC)c1C(=O)Nn1c(-c2cccs2)nc2ccccc2c1=O | 0.184 µM [rising, full curve, poor fit] | – |
| O=C1CCCc2c1cc(C(=O)NCc1ccco1)c(=O)n2-c1ccc(Cl)cc1 | 1.64 µM [falling, full curve, poor fit] | – |
| CSc1ccc(C#N)cc1NC(=O)c1ccc(Cl)cc1 | 1.64 µM [rising, full curve, poor fit] | – |
| C=CCn1c(=O)c2c3c(sc2n2c(Nc4ccccc4)nnc12)CCCC3 | 0.366 µM [falling, full curve, poor fit] | 0.411 µM [rising, full curve] |
| Cc1c(OCC(=O)NCCCN2CCOCC2)ccc2c1oc(=O)c1ccccc12 | 12.6 µM [rising, single point] | – |
| COc1ccc(S(=O)(=O)n2nc(OC(=O)c3c(-c4ccccc4Cl)noc3C)cc2N)cc1 | 7.94 µM [falling, partial curve, poor fit] | – |
